Test results reported in PubChem BioAssay AID1347076 (National Center for Advancing Translational Sciences (NCATS), 2019).
Screen size: about 400,000 compounds; about 13,000 (3.2%) were called active. Inconclusive results, whose numbers are uncertain, are shown with a selection of clear calls. The call rests on the fitted dose curve; in most records, active means well fitted cell-killing curve with a large enough effect; inconclusive means small, poorly fitted or top-dose-only effect, or effect the other way; inactive means flat fitted curve, though single readings scatter. Potencies beside an inconclusive call are fits to weak or partial responses and may not hold up.

Test: qHTS assay for MDR1-selective chemotherapeutics: Primary screen using the drug-selected MDR subline cells KB-V1; further: nearly all actives have a fitted effect of over 60% in size
Details: KB-V1 MDR cells viability, CellTiter-Glo, 72 h; series mostly up to 46.1 µM
Procedure, shortened: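 Following 72 h at 37 degrees C with compound, KB-V1 cell viability was read by CellTiter-Glo luminescence, medium being phenol-red-free DMEM plus 10% FBS; concentration-response parameters came from normalized, curve-fitted qHTS data.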
Potency means the concentration at half of the fitted maximal effect.

Row | SMILES | Potency
1 | CC(C)(C)c1cc[n+](-c2[nH]c(=O)sc2/C=N/NC([S-])=Nc2ccccc2)cc1 | inconclusive: 4.11 µM [rising, full curve]
2 | Cc1cc(C)c(C#N)c(SCc2cn3c(C)cccc3n2)n1 | active: 18.4 µM
3 | NC(=O)C1CCN(C(=O)CCc2nc3sc4c(c3c(=O)[nH]2)CCCC4)CC1 | inactive
4 | Cc1sc(C(C2C(=O)CC(C)(C)CC2=O)C2C(=O)CC(C)(C)CC2=O)cc1[N+](=O)[O-] | inactive
5 | COc1ccc(CCNC(=O)COc2ccc(-c3ccc(C#N)cc3)cc2)cc1 | inactive
6 | Cc1nc(NC(=O)c2ccco2)sc1-c1csc(Nc2ccc(Cl)cc2Cl)n1 | inconclusive: 11.6 µM [cytotoxic, partial curve, poor fit]
7 | CC1(C(=O)NCc2cccc(Cl)c2)Cc2c(-c3ccccc3)ccnc2O1 (configuration not stated) | inactive
8 | Nc1c(N(CCC2=CCCCC2)C(=O)COc2ccc(F)cc2Cl)c(=O)[nH]c(=O)n1Cc1ccccc1 | inconclusive: 23.1 µM [rising, single point]
9 | COc1cc2c(cc1OC)CN(C(=O)c1cccc(S(=O)(=O)N3CCc4ccccc43)c1)CC2 | active: 20.6 µM
10 | S=c1[nH]c(-c2ccccc2)cn1/N=C/c1cccc2ccccc12 | inconclusive: 29.1 µM [cytotoxic, single point]
11 | Cc1ccc(-n2ncc3c(N4CCN(Cc5ccccc5)CC4)ncnc32)cc1C | inconclusive: 29.1 µM [cytotoxic, single point]
12 | Cc1ccc(S(=O)(=O)NNC(=O)Nc2ccccc2F)c(C)c1 | inconclusive: 5.17 µM [rising, partial curve, poor fit]
13 | CC1=NN(c2cccc(C(=O)O)c2)C(=O)/C1=C\C=C/c1ccccc1 | inconclusive: 29.1 µM [cytotoxic, single point]
14 | CCOC(=O)c1ccc(-n2c(=S)sc3c(=O)[nH]c(C)nc32)cc1 | inactive
15 | O=C(Nc1ccc(F)cc1)N1CCN(c2nc3ccccc3s2)CC1 | inactive
16 | Cc1cc(C)n(C(C[N+](=O)[O-])c2ccc(Cl)cc2)n1 (configuration not stated) | inconclusive: 29.1 µM [cytotoxic, single point]
17 | CCOCc1c(C(=O)Nc2cc(OCC)c(N3CCOCC3)cc2OCC)oc2ccccc12 | inactive
18 | Cc1ccccc1C(=O)N/C(=C/c1ccc(-c2cccnc2Cl)o1)C(=O)NCCCN1CCN(C)CC1 | inactive
19 | CC(C)(C)N(NC(=O)OCc1ccccc1)C(=O)c1ccccc1Cl | inconclusive: 18.4 µM [cytotoxic, single point]
20 | CCc1ccc(C(=O)NC(=S)Nc2ccc(N3CCOCC3)cc2)cc1 | active: 18.4 µM
21 | CCOCCc1nn2c(=O)cc(COC(=O)c3ccccc3Br)nc2s1 | inactive
22 | O=C(Nc1nc(-c2ccc(F)cc2)cs1)c1cccnc1 | inconclusive: 10.3 µM [cytotoxic, partial curve, poor fit]
23 | CC(=O)c1ccc(OC(=O)/C=C/c2ccccc2)cc1 | inconclusive: 2.06 µM [rising, full curve, poor fit]
24 | CCOc1ccc(C(=O)Nc2ccccc2-c2ccccc2)cc1Cl | inconclusive: 6.51 µM [cytotoxic, partial curve]

In the list so far, 2 contain an aryl methoxy group.
Row | SMILES | Potency
5 | COc1ccc(CCNC(=O)COc2ccc(-c3ccc(C#N)cc3)cc2)cc1 | inactive
9 | COc1cc2c(cc1OC)CN(C(=O)c1cccc(S(=O)(=O)N3CCc4ccccc43)c1)CC2 | active: 20.6 µM

Some of these compounds in order of heavy-atom count, low to high:
Row | SMILES | Potency
12 | Cc1ccc(S(=O)(=O)NNC(=O)Nc2ccccc2F)c(C)c1 | inconclusive: 5.17 µM [rising, partial curve, poor fit]
20 | CCc1ccc(C(=O)NC(=S)Nc2ccc(N3CCOCC3)cc2)cc1 | active: 18.4 µM
7 | CC1(C(=O)NCc2cccc(Cl)c2)Cc2c(-c3ccccc3)ccnc2O1 (configuration not stated) | inactive

Remaining list, next part

Row | SMILES | Potency
25 | CCOC(=O)c1c(NC(=O)CCc2ccc(CC)o2)sc(C)c1C | inconclusive: 20.6 µM [cytotoxic, partial curve, poor fit]
26 | Cc1ccc(S(=O)(=O)c2c(C)nn(C(C)(C)C)c2OC(=O)c2ccc(Br)o2)cc1 | inconclusive: 29.1 µM [cytotoxic, single point]
27 | O=C(Nc1ccc(N2CCCCC2)cc1)c1ccc2c(c1)OCCO2 | inconclusive: 3.26 µM [cytotoxic, partial curve]
28 | O=C(Cc1ccc2c(c1)CCCC2)Nc1ccccc1Br | inconclusive: 23.1 µM [cytotoxic, partial curve, poor fit]
29 | CCN(CC)c1ccc(/C=c2\sc3nnc(-c4ccccc4Cl)n3c2=O)cc1 | inconclusive: 29.1 µM [rising, single point]
30 | COc1ccc(NC(=O)C2CCCN(S(=O)(=O)c3cccc4nonc34)C2)c(OC)c1 (configuration not stated) | inactive
31 | CC(C)c1ccc(NC(=O)C2Cc3c(-c4ccc(Cl)cc4)ccnc3O2)cc1 (configuration not stated) | inactive
32 | CCCn1c(=N)c(C(=O)NCc2ccccc2)cc2c(=O)n3cccc(C)c3nc21 | inconclusive: 29.1 µM [rising, single point]
33 | CS(=O)(=O)N(CC(=O)NCCC1=CCCCC1)c1ccc2c(c1)OCO2 | inconclusive: 25.9 µM [cytotoxic, partial curve]
34 | CCCCOc1ccccc1C(=O)NNC(=S)NC(=O)c1ccccc1[N+](=O)[O-] | inconclusive: 0.517 µM [cytotoxic, full curve, poor fit]
35 | CC(C)C(C)NC(=O)COc1ccc(OCc2ccccc2)cc1 (configuration not stated) | inconclusive: 18.4 µM [cytotoxic, single point]
36 | O=C(Nc1cccc(Cl)c1)Nc1ccccc1-n1ccnc1 | inactive
37 | CC(=O)C1=CCC(c2ccccc2)N(S(C)(=O)=O)C1 (configuration not stated) | inconclusive: 10.3 µM [rising, partial curve, poor fit]
38 | O=C1Nc2ccc(Br)cc2/C1=C/C(=O)c1ccc2c(c1)OCO2 | inconclusive: 29.1 µM [cytotoxic, single point]
39 | c1ccc2c(-n3cccn3)cccc2c1 | inconclusive: 16.4 µM [rising, partial curve, poor fit]
40 | Cc1cc(C)cc(NC(=O)[C@H](Cc2c[nH]c3ccccc23)NC(=O)[C@@H]2Cc3ccccc3CN2)c1 | inconclusive: 14.6 µM [cytotoxic, partial curve]
41 | Oc1c(C(c2cccc(Cl)c2)N2CCOCC2)sc2nc(-c3ccco3)nn12 (configuration not stated) | inactive
42 | Cc1ccc(C(=O)Nc2cccc(C(=O)NCc3ccccc3)c2)cc1 | active: 4.61 µM
43 | CCCn1cc(S(=O)(=O)CC(=O)Nc2ccc(OC)cc2OC)c2ccccc21 | inconclusive: 18.4 µM [cytotoxic, single point]
44 | CCOP(=O)(OCC)C(Nc1cc(Cl)cc(Cl)c1)c1cccc(O)c1 (configuration not stated) | inactive
45 | COc1ncnc2c1ncn2CCCN1CCN(Cc2ccc(C)cc2)CC1 | inconclusive: 25.9 µM [cytotoxic, partial curve]
46 | Cc1ccc(S(=O)(=O)N2C[C@H]3[C@H]4C(=O)N(c5ccccc5)C(=O)[C@H]4C[C@H](OC(=O)Nc4cccs4)[C@@]3(O)C2)cc1 | inactive
47 | CCNC(=O)CC1SC(=Nc2ccc(Cl)cc2)N(CC)C1=O (configuration not stated) | inconclusive: 29.1 µM [rising, partial curve, poor fit]
48 | O=C(/C=C/c1ccc(O)c(O)c1)OC(Cc1ccc(O)c(O)c1)C(=O)O (configuration not stated) | inactive

Row | SMILES | Potency
49 | CCCN1Cc2cccc(C(=O)NC(CC(=O)OCC)c3ccc(OC(C)C)cc3)c2C1=O (configuration not stated) | inconclusive: 25.9 µM [cytotoxic, single point]
50 | CCOc1ccc(C(C)NC(=O)c2ccccc2F)cc1 (configuration not stated) | active: 16.4 µM
51 | COc1ccc(NC(=O)CC(=O)Nc2ccc(OC)cc2OC)c(OC)c1 | active: 20.6 µM
52 | CCOc1ccc(S(=O)(=O)NCCC(=O)NCCOc2ccccc2)cc1 | inactive
53 | O=C(Nc1cccc(-c2nc3ccccc3s2)c1)c1cc(=O)c2ccccc2o1 | inconclusive: 5.8 µM [cytotoxic, partial curve]
54 | C=CCC(Nc1ccccc1)C12C=CC(O1)C(C(=O)OC)=C2C(=O)OC (configuration not stated) | inconclusive: 23.1 µM [cytotoxic, single point]
55 | O=C(NCc1ccccc1)N1CCN(c2ccc(Cl)c(Cl)c2)CC1 | inconclusive: 8.2 µM [cytotoxic, partial curve]
56 | COC(=O)C1=CN(Cc2ccccc2)C=C(C(=O)OC)C1c1cc(F)ccc1F | inactive
57 | O=C(Nc1cccc2ncccc12)c1ccc(OCc2ccccc2)cc1 | inconclusive: 32.6 µM [cytotoxic, single point]
58 | COc1cc2c(cc1OC)[C@@H]1Cc3cc4c(cc3[C@H](C2)N1C)OCO4 | inactive
59 | CCn1c(C)nc2cc(C(=O)NNC(=S)Nc3ccc(Cl)cc3)ccc21 | inconclusive: 23.1 µM [cytotoxic, single point]
60 | CC1CCC(C(C)C)C(OC(=O)CSc2nnc(N)s2)C1 (configuration not stated) | inactive
61 | O=C(Nc1c(C(=O)O)[nH]c2ccccc12)c1cccc(C(F)(F)F)c1 | inconclusive: 4.61 µM [cytotoxic, full curve, poor fit]
62 | COC(=O)c1ccccc1NC(=O)C1CCCN(C(=O)c2cnn(-c3ccc(F)cc3)c2-n2cccc2)C1 (configuration not stated) | active: 18.4 µM
63 | CCc1nn(CC(=O)NCC(C)c2ccccc2)c(=O)c2cc3c(OC)cccc3n12 (configuration not stated) | inactive
64 | Cc1ccc(NC(=O)CSc2ccccn2)cc1S(=O)(=O)N1CCOCC1 | inconclusive: 0.231 µM [rising, full curve, poor fit]
65 | Cc1ccc(-c2nnc(NC3CCCCC3)c3ccccc23)cc1S(=O)(=O)N1CCN(C)CC1 | active: 23.1 µM
66 | CCCN(CCC)C(=O)CSc1nc2ccccc2c(=O)n1C1CCCC1 | active: 7.31 µM
67 | CCCOc1ccc(C(=O)Nc2cccc(NC(=O)c3ccc(Cl)cc3Cl)c2)cc1 | inconclusive: 2.06 µM [cytotoxic, full curve]
68 | CCOC(=O)/C(C#N)=C/N=c1ccc(C)cn1C | inactive
69 | CC(=O)Nc1ccc(NC(=O)c2c(-c3ccccc3)noc2C)cc1 | inactive
70 | O=C(CSc1nc2ccccc2n1Cc1cccc(C(F)(F)F)c1)NCc1ccccc1 | inactive
71 | CCC(=O)n1nc(-c2cccnc2)nc1NCc1ccccc1 | inactive
72 | Cc1cc(C)cc(NC(=O)Cn2c(C)cc(C)c(C#N)c2=O)c1 | inconclusive: 9.2 µM [rising, partial curve, poor fit]
